The list shows a part of the results.
What was measured:
Assay in all cases: log2 fold change, soluble protein after heating vs DMSO (PISA); higher = thermal stabilisation; K562 cells, 10 uM, 30 min; active = over 0.2 and 3.5 SD of the protein, either way, in both replicates (recomputed)
alvocidib = compound: CN1CC[C@H](c2c(O)cc(O)c3c(=O)cc(-c4ccccc4Cl)oc23)[C@H](O)C1 [alvocidib]
Summary of the method: (§1)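 K562 cells at 2×10^6 cells/mL were treated with 10 μM compound for 30 min. Aliquots were heated for 3 min across 48°C-58°C, pooled, and extracted in PBS with 0.5% NP-40 at 4°C; soluble protein was the supernatant after 21,000xg for 90 min. Soluble protein was quantified by TMTpro 16plex LC-MS/MS with channel sums equalised, and reported as log2 fold change in thermal stability against DMSO controls, with values from duplicates.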

Chains of the proteins cited; added tags and fusions are not shown. Lines headed by an entry give the natural chain unless they say otherwise; changes in a name come on top.
UniProt Q6P1R4: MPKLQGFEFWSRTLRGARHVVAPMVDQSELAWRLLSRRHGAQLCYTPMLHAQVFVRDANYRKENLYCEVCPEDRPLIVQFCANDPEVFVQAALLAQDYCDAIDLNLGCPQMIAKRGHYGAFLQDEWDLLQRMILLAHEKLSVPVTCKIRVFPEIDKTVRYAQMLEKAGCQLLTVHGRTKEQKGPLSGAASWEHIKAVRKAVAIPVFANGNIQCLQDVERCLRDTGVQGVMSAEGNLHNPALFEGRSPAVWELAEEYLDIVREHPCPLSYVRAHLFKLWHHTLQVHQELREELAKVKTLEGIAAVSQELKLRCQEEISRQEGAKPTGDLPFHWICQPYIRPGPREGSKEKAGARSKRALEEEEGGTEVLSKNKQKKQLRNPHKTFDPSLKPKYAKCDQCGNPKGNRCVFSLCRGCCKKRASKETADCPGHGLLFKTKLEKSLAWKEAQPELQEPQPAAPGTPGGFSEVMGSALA
UniProt Q96BY6: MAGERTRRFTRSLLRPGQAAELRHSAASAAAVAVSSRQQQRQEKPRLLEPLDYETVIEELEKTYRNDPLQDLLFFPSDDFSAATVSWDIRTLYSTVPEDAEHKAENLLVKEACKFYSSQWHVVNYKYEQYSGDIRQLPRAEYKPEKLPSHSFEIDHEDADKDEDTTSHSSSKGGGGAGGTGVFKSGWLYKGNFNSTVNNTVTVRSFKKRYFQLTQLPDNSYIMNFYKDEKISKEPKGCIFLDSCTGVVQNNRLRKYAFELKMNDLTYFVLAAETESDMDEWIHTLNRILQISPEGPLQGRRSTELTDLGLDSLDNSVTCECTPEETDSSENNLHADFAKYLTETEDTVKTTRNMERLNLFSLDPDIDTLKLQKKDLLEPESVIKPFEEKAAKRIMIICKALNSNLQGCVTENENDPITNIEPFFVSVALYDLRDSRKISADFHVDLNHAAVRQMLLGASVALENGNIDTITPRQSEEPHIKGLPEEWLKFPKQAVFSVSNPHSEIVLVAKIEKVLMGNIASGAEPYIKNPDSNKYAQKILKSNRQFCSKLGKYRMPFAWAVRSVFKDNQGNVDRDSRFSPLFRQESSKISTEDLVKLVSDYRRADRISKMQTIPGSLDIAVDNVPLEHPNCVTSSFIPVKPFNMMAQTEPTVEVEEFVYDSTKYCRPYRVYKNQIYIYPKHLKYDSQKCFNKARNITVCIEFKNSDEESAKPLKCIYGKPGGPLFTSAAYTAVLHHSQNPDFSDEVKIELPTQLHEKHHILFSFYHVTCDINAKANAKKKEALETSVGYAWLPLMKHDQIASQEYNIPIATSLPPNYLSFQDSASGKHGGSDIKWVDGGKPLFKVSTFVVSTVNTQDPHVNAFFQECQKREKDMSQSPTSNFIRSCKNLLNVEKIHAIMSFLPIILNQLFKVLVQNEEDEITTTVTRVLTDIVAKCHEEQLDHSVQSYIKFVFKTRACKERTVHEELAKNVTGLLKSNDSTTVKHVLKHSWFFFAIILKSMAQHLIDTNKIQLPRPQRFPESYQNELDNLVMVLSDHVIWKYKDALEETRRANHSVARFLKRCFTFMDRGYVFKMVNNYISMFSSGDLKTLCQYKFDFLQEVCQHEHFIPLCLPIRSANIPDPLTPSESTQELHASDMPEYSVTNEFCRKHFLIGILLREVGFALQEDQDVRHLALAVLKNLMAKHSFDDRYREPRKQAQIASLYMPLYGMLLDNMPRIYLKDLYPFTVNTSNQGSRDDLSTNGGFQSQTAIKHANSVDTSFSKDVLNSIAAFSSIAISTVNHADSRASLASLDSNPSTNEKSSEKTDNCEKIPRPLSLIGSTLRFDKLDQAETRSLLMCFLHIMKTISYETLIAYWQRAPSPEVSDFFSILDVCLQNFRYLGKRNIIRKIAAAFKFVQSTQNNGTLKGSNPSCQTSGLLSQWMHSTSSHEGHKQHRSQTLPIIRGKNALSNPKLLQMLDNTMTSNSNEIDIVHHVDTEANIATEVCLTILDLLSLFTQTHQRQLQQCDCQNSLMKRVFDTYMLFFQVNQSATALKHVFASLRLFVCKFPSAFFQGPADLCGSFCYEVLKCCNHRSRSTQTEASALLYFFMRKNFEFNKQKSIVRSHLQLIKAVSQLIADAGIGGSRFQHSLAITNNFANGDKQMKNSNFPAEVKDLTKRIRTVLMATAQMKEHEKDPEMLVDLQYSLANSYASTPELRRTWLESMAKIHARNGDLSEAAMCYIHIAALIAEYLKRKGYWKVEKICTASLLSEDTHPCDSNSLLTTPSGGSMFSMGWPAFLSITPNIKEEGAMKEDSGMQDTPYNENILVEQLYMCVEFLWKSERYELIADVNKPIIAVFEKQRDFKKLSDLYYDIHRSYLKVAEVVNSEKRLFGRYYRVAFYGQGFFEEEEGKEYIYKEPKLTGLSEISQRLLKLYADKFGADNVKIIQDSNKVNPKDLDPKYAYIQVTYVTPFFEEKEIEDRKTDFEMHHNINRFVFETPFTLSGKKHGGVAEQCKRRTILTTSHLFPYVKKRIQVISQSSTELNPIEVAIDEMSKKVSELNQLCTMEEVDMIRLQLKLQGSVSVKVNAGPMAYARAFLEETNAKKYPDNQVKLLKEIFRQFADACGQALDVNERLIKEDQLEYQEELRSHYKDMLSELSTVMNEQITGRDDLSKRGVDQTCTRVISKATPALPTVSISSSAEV
UniProt Q9UPQ8: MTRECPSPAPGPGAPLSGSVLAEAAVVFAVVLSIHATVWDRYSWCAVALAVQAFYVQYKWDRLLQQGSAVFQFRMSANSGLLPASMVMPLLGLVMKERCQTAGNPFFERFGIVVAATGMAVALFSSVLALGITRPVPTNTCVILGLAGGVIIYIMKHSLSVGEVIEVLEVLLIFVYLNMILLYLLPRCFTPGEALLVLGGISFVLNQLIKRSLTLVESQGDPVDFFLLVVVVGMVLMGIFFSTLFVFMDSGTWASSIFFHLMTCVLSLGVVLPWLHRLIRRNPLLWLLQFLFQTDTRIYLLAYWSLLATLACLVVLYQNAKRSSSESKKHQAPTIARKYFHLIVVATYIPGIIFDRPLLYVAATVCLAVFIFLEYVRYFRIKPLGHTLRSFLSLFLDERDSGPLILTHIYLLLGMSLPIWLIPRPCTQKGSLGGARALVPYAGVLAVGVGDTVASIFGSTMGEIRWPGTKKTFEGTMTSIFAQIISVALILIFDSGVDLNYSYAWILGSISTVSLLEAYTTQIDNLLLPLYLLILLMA
UniProt Q9H8V3: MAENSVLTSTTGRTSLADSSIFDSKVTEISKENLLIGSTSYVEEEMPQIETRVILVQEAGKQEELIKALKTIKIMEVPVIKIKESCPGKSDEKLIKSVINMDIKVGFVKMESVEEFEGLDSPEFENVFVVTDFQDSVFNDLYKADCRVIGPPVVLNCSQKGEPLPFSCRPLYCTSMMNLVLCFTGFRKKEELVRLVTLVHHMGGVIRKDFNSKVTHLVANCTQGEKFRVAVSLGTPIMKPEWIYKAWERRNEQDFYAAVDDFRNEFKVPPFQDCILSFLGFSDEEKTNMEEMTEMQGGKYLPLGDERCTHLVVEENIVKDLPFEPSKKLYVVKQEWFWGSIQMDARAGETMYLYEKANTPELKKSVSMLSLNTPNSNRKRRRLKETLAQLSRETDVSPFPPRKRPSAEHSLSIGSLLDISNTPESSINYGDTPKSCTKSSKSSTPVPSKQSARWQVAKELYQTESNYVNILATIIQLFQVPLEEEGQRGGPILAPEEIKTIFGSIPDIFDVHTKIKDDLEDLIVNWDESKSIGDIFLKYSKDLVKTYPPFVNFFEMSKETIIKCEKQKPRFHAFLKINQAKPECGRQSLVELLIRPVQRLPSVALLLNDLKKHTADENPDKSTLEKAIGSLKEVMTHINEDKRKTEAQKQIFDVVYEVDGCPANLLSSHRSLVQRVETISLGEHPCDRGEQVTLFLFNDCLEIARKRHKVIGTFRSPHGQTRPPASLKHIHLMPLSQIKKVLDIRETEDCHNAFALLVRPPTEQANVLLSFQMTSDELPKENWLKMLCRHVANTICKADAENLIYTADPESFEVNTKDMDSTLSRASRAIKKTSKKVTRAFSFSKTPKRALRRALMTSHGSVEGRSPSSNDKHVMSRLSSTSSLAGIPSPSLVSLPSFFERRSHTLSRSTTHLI
UniProt Q5JWR5: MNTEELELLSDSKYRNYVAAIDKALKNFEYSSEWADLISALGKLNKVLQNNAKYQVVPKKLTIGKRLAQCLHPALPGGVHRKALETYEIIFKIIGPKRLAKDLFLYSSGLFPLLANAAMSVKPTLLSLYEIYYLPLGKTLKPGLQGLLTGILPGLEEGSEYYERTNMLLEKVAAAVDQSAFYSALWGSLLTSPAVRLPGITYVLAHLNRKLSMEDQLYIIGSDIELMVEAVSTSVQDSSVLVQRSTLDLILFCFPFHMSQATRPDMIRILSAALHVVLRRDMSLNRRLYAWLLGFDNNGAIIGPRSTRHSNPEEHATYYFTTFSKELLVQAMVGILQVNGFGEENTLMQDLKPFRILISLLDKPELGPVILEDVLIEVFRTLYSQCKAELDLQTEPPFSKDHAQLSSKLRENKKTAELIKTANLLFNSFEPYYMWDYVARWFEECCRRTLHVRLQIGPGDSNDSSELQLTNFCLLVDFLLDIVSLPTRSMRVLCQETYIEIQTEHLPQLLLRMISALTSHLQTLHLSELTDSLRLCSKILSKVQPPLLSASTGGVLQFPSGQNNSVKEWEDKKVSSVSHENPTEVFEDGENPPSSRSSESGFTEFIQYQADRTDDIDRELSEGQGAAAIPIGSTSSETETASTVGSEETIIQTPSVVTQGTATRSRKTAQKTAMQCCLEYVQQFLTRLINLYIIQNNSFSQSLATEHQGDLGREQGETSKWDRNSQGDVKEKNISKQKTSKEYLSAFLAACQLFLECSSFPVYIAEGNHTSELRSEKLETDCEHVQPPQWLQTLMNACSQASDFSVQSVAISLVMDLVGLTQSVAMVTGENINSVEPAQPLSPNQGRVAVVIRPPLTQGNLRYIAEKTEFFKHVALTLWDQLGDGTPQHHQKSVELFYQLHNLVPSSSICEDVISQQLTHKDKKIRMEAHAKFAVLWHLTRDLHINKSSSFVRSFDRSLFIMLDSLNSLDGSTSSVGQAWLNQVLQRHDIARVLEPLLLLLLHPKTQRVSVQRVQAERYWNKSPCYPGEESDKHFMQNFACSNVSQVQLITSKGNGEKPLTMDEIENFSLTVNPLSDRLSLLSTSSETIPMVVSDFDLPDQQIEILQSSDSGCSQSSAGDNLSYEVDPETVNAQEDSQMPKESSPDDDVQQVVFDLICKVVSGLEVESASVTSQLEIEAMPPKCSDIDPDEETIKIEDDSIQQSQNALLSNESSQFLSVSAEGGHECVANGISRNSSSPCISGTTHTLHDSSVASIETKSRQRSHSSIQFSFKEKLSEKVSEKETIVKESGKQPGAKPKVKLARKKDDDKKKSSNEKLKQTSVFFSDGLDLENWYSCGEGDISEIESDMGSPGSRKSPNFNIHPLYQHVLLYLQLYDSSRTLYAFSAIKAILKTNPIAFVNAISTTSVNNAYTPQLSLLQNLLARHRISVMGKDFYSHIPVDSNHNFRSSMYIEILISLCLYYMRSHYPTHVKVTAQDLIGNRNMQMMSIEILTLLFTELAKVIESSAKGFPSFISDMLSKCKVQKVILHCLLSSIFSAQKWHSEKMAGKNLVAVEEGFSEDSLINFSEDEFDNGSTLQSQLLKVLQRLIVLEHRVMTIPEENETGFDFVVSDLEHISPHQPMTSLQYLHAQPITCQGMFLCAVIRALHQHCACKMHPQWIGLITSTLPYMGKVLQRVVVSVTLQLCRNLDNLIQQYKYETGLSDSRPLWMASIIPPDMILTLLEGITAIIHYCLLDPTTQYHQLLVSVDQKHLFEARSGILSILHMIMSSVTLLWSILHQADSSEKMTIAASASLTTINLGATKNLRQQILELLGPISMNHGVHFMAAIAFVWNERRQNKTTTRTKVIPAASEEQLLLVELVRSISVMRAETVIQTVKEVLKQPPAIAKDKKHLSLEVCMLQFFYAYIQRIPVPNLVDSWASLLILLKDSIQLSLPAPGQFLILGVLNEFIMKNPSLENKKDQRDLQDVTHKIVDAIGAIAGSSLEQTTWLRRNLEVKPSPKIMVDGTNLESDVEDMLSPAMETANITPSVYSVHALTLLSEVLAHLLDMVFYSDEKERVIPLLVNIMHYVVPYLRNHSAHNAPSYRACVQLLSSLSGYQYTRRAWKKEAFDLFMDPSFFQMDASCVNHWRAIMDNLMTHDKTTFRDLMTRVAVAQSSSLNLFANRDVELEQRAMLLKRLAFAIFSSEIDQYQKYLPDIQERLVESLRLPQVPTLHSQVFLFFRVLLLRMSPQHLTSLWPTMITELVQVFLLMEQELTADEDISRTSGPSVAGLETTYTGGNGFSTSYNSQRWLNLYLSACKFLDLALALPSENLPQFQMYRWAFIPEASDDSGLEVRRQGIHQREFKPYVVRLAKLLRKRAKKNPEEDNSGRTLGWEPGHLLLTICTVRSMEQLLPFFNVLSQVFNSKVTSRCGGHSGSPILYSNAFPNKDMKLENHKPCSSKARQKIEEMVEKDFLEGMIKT

Tubastatin A = compound: CN1CCc2c(c3ccccc3n2Cc2ccc(C(=O)NO)cc2)C1 [Tubastatin A]
Summary of the method: as §1

[1] = compound: CNC(=O)C1=CC=CC=C1NC2=NC(=NC=C2Cl)NC3=C(C=C(C=C3)N4CCOCC4)OC
Summary of the method: as §1

zotarolimus = compound: CO[C@H]1C[C@@H]2CC[C@@H](C)[C@@](O)(O2)C(=O)C(=O)N2CCCC[C@H]2C(=O)O[C@H]([C@H](C)C[C@@H]2CC[C@H](n3cnnn3)[C@H](OC)C2)CC(=O)[C@H](C)/C=C(\C)[C@@H](O)[C@@H](OC)C(=O)[C@H](C)C[C@H](C)/C=C/C=C/C=C/1C [zotarolimus]
Summary of the method: as §1

alisertib = compound: COc1cc(Nc2ncc3c(n2)-c2ccc(Cl)cc2C(c2c(F)cccc2OC)=NC3)ccc1C(=O)O [alisertib]
Summary of the method: as §1

[2] = compound: COc1cccc2cc(-c3nc([C@H]4CC[C@H](C(=O)O)CC4)n4ncnc(N)c34)[nH]c12
Summary of the method: as §1

pictilisib = compound: CS(=O)(=O)N1CCN(Cc2cc3nc(-c4cccc5[nH]ncc45)nc(N4CCOCC4)c3s2)CC1 [pictilisib]
Summary of the method: as §1

sotrastaurin = compound: CN1CCN(c2nc(C3=C(c4c[nH]c5ccccc45)C(=O)NC3=O)c3ccccc3n2)CC1 [sotrastaurin]
Summary of the method: as §1

rucaparib = compound: CNCc1ccc(-c2[nH]c3cc(F)cc4c3c2CCNC4=O)cc1 [rucaparib]
Summary of the method: as §1

encorafenib = compound: COC(=O)N[C@@H](C)CNc1nccc(-c2cn(C(C)C)nc2-c2cc(Cl)cc(NS(C)(=O)=O)c2F)n1 [encorafenib]
Summary of the method: as §1

[3] = compound: COC1=CC=C(C=C1)CN2C=CC3=C2C=C(C=C3)C(=O)NO
Summary of the method: as §1

filanesib = compound: CON(C)C(=O)N1N=C(c2cc(F)ccc2F)S[C@@]1(CCCN)c1ccccc1 [filanesib]
Summary of the method: as §1

defactinib = compound: CNC(=O)c1ccc(Nc2ncc(C(F)(F)F)c(NCc3nccnc3N(C)S(C)(=O)=O)n2)cc1 [defactinib]
Summary of the method: as §1

[4] = compound: COC(=O)[C@H](CCSC)NC(=O)C1=C(C=C(C=C1)NC[C@H](CS)N)C2=CC=CC=C2
Summary of the method: as §1

idasanutlin = compound: COc1cc(C(=O)O)ccc1NC(=O)[C@@H]1N[C@@H](CC(C)(C)C)[C@](C#N)(c2ccc(Cl)cc2F)[C@H]1c1cccc(Cl)c1F [idasanutlin]
Summary of the method: as §1

gefitinib = compound: COc1cc2ncnc(Nc3ccc(F)c(Cl)c3)c2cc1OCCCN1CCOCC1 [gefitinib]
Summary of the method: as §1

[5] = compound: COc1cc2nc(-c3cc(F)ccc3O)nc(N[C@@H]3CNC[C@H]3C(C)(C)O)c2cc1OC
Summary of the method: as §1

lapatinib = compound: CS(=O)(=O)CCNCc1ccc(-c2ccc3ncnc(Nc4ccc(OCc5cccc(F)c5)c(Cl)c4)c3c2)o1 [lapatinib]
Summary of the method: as §1

Measured: log2 fold change

DUS1L (UniProt Q6P1R4)
inactive: alvocidib 0.11 | Tubastatin A -0.004 | [1] 0.084 | zotarolimus 0.084 | alisertib 1.02 | [2] 0.129 | pictilisib 0.039

DOCK11, A0A0J9YW64
inactive: sotrastaurin 0.065 | rucaparib 0.229 | encorafenib 0.112 | [3] -0.156 | filanesib -0.08 | alisertib -0.012 | [2] -0.018

DPCD (UniProt Q9BVM2)
inactive: defactinib 0.016 | [4] -0.053 | [3] 0.059 | idasanutlin 0.111 | pictilisib 0.096

DNASE1L1 (UniProt P49184)
inactive: [1] -0.155 | idasanutlin 0.007

DOCK10 (UniProt Q96BY6)
inactive: Tubastatin A 0.127 | defactinib -0.147 | rucaparib -0.357 | encorafenib 0.244 | [4] 0.089 | [3] 0.117 | alisertib -0.074 | gefitinib 0.473 | [2] 0.047

DOLPP1 (UniProt Q86YN1)
inactive: Tubastatin A -0.066 | [1] 0.012 | defactinib -0.134 | rucaparib 0.087 | encorafenib -0.057 | [4] 0.156 | [3] -0.05 | zotarolimus -0.003 | idasanutlin -0.043 | alisertib -0.022 | [5] 0.129 | gefitinib 0.013 | [2] 0.011 | lapatinib -0.07

DYM (UniProt Q7RTS9)
inactive: sotrastaurin 0.054 | alvocidib 0.113 | Tubastatin A -0.061 | [1] -0.048 | defactinib -0.235 | rucaparib 0.301 | encorafenib 0.086 | [4] -0.117 | [3] -0.03 | filanesib 0.01 | zotarolimus 0.136 | alisertib -0.232 | [5] -0.01 | gefitinib 0.036 | [2] 0.075 | lapatinib 0.037 | pictilisib 0.003

DOLK (UniProt Q9UPQ8)
inactive: sotrastaurin -0.111 | alvocidib 0.095 | [1] 0.02 | filanesib -0.118 | zotarolimus -0.003 | idasanutlin -0.127 | gefitinib -0.027

ECT2 isoform 3 (UniProt Q9H8V3)
inactive: sotrastaurin -0.997 | rucaparib 0.244 | encorafenib 0.215 | filanesib 0.454

DNM1 (UniProt Q05193)
inactive: [1] -0.035 | defactinib -0.037 | [4] -0.035 | pictilisib 0.091

DOP1A (UniProt Q5JWR5)
inactive: [1] -0.052 | defactinib 0.164 | [4] -0.083 | alisertib -0.013 | [2] 0.02

DRAM2 (UniProt Q6UX65)
inactive: sotrastaurin 0.063 | alvocidib 0.024 | Tubastatin A -0.146 | defactinib -0.07 | rucaparib -0.159 | encorafenib 0.103 | [4] 0.129 | [3] -0.019 | filanesib -0.033 | zotarolimus -0.038 | idasanutlin 0.138 | alisertib 0.21 | [5] -0.051 | [2] 0.148 | lapatinib -0.088

DUSP19 (UniProt Q8WTR2)
inactive: [1] 0.086

DVL2 (UniProt O14641)
inactive: sotrastaurin -0.341 | rucaparib -0.119 | encorafenib 0.059 | filanesib 0.375 | idasanutlin 0.099 | [5] 0.292 | lapatinib -0.313 | pictilisib -0.378

Reference: the supplement of paper PMC10849652
